Results deposited as PubChem BioAssay AID1508588 (Peter MacCallum Cancer Centre, 2020)
Test: 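Knock-downs boosting vemurafenib effects on melanoma cell growth or lactate release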 (primary screen). Cells: human WM266.4 melanoma cells (BRAF V600 mutant). Knock-down reagent: siRNA pool against human genes, 40 nM. Duration: 96 h from transfection to read-out. Conditions: vemurafenib 300 nM (about IC25), added 48 h after transfection, for 48 h; comparison arm got DMSO vehicle only. Detection: 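Cell gain (DAPI nuclei at end minus before drug, mean of two replicates) and medium lactate by absorbance per cell, both as ratio to non-targeting siRNA, also grouped into fold-change classes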. Direction: cell gain with vemurafenib: higher = more cell gain than with non-targeting siRNA; lactate per cell with vemurafenib: higher = more lactate made per cell. Active means: 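Enhancement is called by pairing each knock-down's vehicle-arm and drug-arm fold-change classes for viability or glycolysis; which class combinations qualify is not given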. Calls: active = enhances vemurafenib effect; inactive = no enhancement seen.
This is a random part of about 18,000 reagents. 790 of them (4.4%) count as active. 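Calls rest on a combination of fold-change classes in drug and vehicle arms, not all shown here.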

ZDHHC8 (zDHHC palmitoyltransferase 8)
- cell gain with vemurafenib: 0.19
- lactate per cell with vemurafenib: 0.41
- Outcome: active

CCNB1IP1 (cyclin B1 interacting protein 1)
- cell gain with vemurafenib: 0.95
- lactate per cell with vemurafenib: 0.48
- Outcome: inactive

ATP6V1F (ATPase H+ transporting V1 subunit F)
- cell gain with vemurafenib: 1.61
- lactate per cell with vemurafenib: 1.21
- Outcome: inactive

PYROXD2 (pyridine nucleotide-disulphide oxidoreductase domain 2)
- cell gain with vemurafenib: 0.18
- lactate per cell with vemurafenib: 0.48
- Outcome: active

ZNF296 (zinc finger protein 296)
- cell gain with vemurafenib: 0.47
- lactate per cell with vemurafenib: 1.05
- Outcome: inactive

CHRNB1 (cholinergic receptor nicotinic beta 1 subunit)
- cell gain with vemurafenib: 1.13
- lactate per cell with vemurafenib: 0.54
- Outcome: inactive

PARP10 (poly(ADP-ribose) polymerase family member 10)
- cell gain with vemurafenib: 0.85
- lactate per cell with vemurafenib: 1.23
- Outcome: inactive

C1GALT1C1 (C1GALT1 specific chaperone 1)
- cell gain with vemurafenib: 0.75
- lactate per cell with vemurafenib: 1.09
- Outcome: inactive

BRK1 (BRICK1 subunit of SCAR/WAVE actin nucleating complex)
- cell gain with vemurafenib: 0.49
- lactate per cell with vemurafenib: 0.84
- Outcome: inactive

PPP1R14A (protein phosphatase 1 regulatory inhibitor subunit 14A)
- cell gain with vemurafenib: 0.73
- lactate per cell with vemurafenib: 0.83
- Outcome: inactive

CHRNA2 (cholinergic receptor nicotinic alpha 2 subunit)
- cell gain with vemurafenib: 0.44
- lactate per cell with vemurafenib: 0.72
- Outcome: inactive

TH (tyrosine hydroxylase)
- cell gain with vemurafenib: 1.16
- lactate per cell with vemurafenib: 1.08
- Outcome: inactive

ASB16 (ankyrin repeat and SOCS box containing 16)
- cell gain with vemurafenib: 0.49
- lactate per cell with vemurafenib: 1.19
- Outcome: inactive

BEND5 (BEN domain containing 5)
- cell gain with vemurafenib: 0.7
- lactate per cell with vemurafenib: 1.08
- Outcome: inactive

ZNF395 (zinc finger protein 395)
- cell gain with vemurafenib: 0.87
- lactate per cell with vemurafenib: 0.89
- Outcome: inactive

CYP2R1 (cytochrome P450 family 2 subfamily R member 1)
- cell gain with vemurafenib: 0.21
- lactate per cell with vemurafenib: 0.24
- Outcome: inactive

PCYT2 (phosphate cytidylyltransferase 2, ethanolamine)
- cell gain with vemurafenib: 0.88
- lactate per cell with vemurafenib: 0.77
- Outcome: inactive

NINL (ninein like)
- cell gain with vemurafenib: 0.58
- lactate per cell with vemurafenib: 1.32
- Outcome: inactive

DNALI1 (dynein axonemal light intermediate chain 1)
- cell gain with vemurafenib: 0.35
- lactate per cell with vemurafenib: 0.84
- Outcome: inactive

NGRN (neugrin, neurite outgrowth associated)
- cell gain with vemurafenib: 0.53
- lactate per cell with vemurafenib: 2.08
- Outcome: inactive

EPAS1 (endothelial PAS domain protein 1)
- cell gain with vemurafenib: 0.59
- lactate per cell with vemurafenib: 0.55
- Outcome: inactive

DLEC1 (DLEC1 cilia and flagella associated protein)
- cell gain with vemurafenib: 0.89
- lactate per cell with vemurafenib: 0.7
- Outcome: inactive

HES6 (hes family bHLH transcription factor 6)
- cell gain with vemurafenib: 0.6
- lactate per cell with vemurafenib: 1.62
- Outcome: inactive

TRPV4
- cell gain with vemurafenib: 0.43
- lactate per cell with vemurafenib: 0.98
- Outcome: inactive

CCDC32 (coiled-coil domain containing 32)
- cell gain with vemurafenib: 0.35
- lactate per cell with vemurafenib: 0.81
- Outcome: inactive

RITA1 (RBPJ interacting and tubulin associated 1)
- cell gain with vemurafenib: 0.84
- lactate per cell with vemurafenib: 1.17
- Outcome: inactive

RELA (RELA proto-oncogene, NF-kB subunit)
- cell gain with vemurafenib: 0.31
- lactate per cell with vemurafenib: 0.26
- Outcome: active
